One may read the AC50 as the concentration giving half of the maximal activity seen.

40 compounds from PubChem BioAssay AID493014 (National Center for Advancing Translational Sciences (NCATS), 2011) can be followed below.

The structures appear in SMILES notation. The list shows a part of the results. Shown are side measurements of this screen, not its main read-out; they come without a call. The list favours compounds with an active or inconclusive main result. Potencies come from curve fits of mixed quality, noted in brackets.

This experiment can be described thus: qHTS Assay to Find Inhibitors of Chronic Active B-Cell Receptor Signaling. The conditions noted are these: ABC-DLBCL IkBa-CBG/CBR reporter, luminescence ratio (green luciferase fused to IkBa over red control in TMD8 lymphoma cells), 4 h. The method in brief:
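Concentration-response series (up to 46 uM) were applied to TMD8 dual-reporter cells for 4 h at 37C with doxycycline. Green/red ratio, after filter-overlap correction, defined %Activity; red signal alone was normalised to basal cells and zero luminescence.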
On the technique in general: Quantitative high-throughput screening tests each substance at several concentrations.

The mark [1] stands for this setting: measured here: CBR red luminescence, cell number.
Where [2] appears, read: measured here: IkBa-CBG green luminescence.

Take `CCc1ccc(NC(=O)COC(=O)CN2C(=O)COc3ccccc32)cc1`: the AC50 under setting [1] is 20.6 µM [rising, single point]. For the compound `CC(C)(C)C(=O)C(Cc1ccccc1Cl)n1cncn1` (configuration not stated), the half-maximal activity concentration (AC50) under setting [1] is 32.6 µM [falling, partial curve, poor fit]. Still for that read-out and setting: the result for `COC(=O)c1c(N)n(-c2ccc(NC(C)=O)cc2)c2nc3ccccc3nc12` reads 2.91 µM [rising, single point]. Turning to `COc1ccccc1/C=C/c1ccc2cccc(O)c2n1`, the AC50 under setting [1] was 35.5 µM [rising, single point].

Turning to `CC1(c2ccc(OCC#N)cc2)C=C(c2ccc(OCC#N)cc2)n2nc(C(F)(F)F)nc2N1` (configuration not stated), under setting [1], the AC50 was 16.4 µM [falling, partial curve, poor fit]. Turning to `COc1ccc(CNC(=O)c2cccnc2SC)cc1OC`, under setting [1], the AC50 was 7.94 µM [falling, partial curve, poor fit]. With `CCc1c(C(=O)Nc2ccc(S(=O)(=O)N3CCOCC3)cc2)csc1C`, the AC50 under setting [1] was 3.26 µM [rising, single point]. For `COc1ccc(NC(=S)NCc2cccs2)c(OC)c1`, the AC50 under setting [1] is 29.1 µM [falling, single point]. For the compound `N#Cc1c2n(c3c(=S)nc[nH]c13)CCCCC2`, under setting [1], the concentration at half-maximal activity (AC50) was 7.08 µM [falling, partial curve]. Turning to `CCCc1cnc(N2CCN(C(=S)NC)CC2)nc1`, the concentration at half-maximal activity (AC50) under setting [1] was 2.51 µM [rising, partial curve, poor fit]. Same read-out and setting: the result for `FC(F)(F)c1ccccc1-n1c(-c2ccco2)n[nH]c1=S` reads 2.51 µM [falling, partial curve, poor fit]; that for `COc1ccc(-c2csc(Nc3ccc(S(=O)(=O)Nc4cc(C)on4)cc3)n2)cc1C`, 35.5 µM [falling, single point].

In the case of `Cc1c(CC(=O)O)c(=O)oc2cc3c(cc12)CCC(C)(C)O3`, the half-maximal activity concentration (AC50) under setting [1] is 10 µM [rising, partial curve, poor fit]. As to `CC1(C)CC(=O)c2sc(NC(=O)c3ccco3)nc2C1`, under setting [1], the AC50 is 11.6 µM [falling, partial curve, poor fit].

As for `O=C(CCc1ccccn1)NC1CCCc2c1cnn2-c1ccc(F)cc1F` (configuration not stated), the AC50 under setting [1] is 5.62 µM [rising, single point]. As for `Cc1c(C#N)c(O)n(C)c(=O)c1N=Nc1ccc(S(N)(=O)=O)cc1`, the AC50 runs as follows: under setting [1], 10 µM [falling, single point]; under setting [2], 14.1 µM [rising, partial curve, poor fit]. For `Cc1ccc(O)c(-c2cc(C(=O)Nc3cccnc3)[nH]n2)c1`, the AC50 under setting [1] is 11.2 µM [falling, partial curve]. `CN(C(=O)c1coc(=O)c2ccccc12)c1ccc(Br)cc1`: the AC50 under setting [1] is 5.62 µM [rising, single point]. Regarding `CCN1CCN(C(=O)/C(C#N)=C/c2ccc(OC(F)F)cc2)CC1`, under setting [1], the AC50 was 14.1 µM [falling, partial curve, poor fit]. On to `Cc1ccc(NC(=O)COc2ncnc3cc([N+](=O)[O-])ccc23)cc1S(=O)(=O)N1CCOCC1`, for which the concentration at half-maximal activity (AC50) under setting [1] was 15.8 µM [falling, single point].

As for `Cc1noc(C)c1C(=O)Nc1nc(C23CC4CC(CC(C4)C2)C3)cs1`, the AC50 under setting [1] is 8.2 µM [falling, partial curve, poor fit]. Regarding `Cc1nnc(C)c2c(C)n(-c3ccc(Br)cc3)c(C)c12`, the AC50 under setting [1] was 29.1 µM [rising, partial curve, poor fit]. For the compound `Cc1ccnc(SCC(=O)O)n1`, the AC50 under setting [1] was 14.1 µM [rising, single point]. Consider `CCn1c(=O)c(=O)[nH]c2cc(C(=O)N3CCN(c4ccccc4F)CC3)ccc21`, for which the AC50 reads like this: under setting [1], 6.51 µM [falling, single point]; under setting [2], 3.66 µM [rising, partial curve, poor fit].

As to `COc1ccc(C2C(C(=O)c3cccs3)=C(O)C(=O)N2c2nncs2)cc1` (configuration not stated), the AC50 under setting [1] was 2.51 µM [falling, partial curve, poor fit]. Regarding `O=C1CC(c2ccc(Cl)c([N+](=O)[O-])c2)c2ccc3ccccc3c2N1` (configuration not stated), the concentration at half-maximal activity (AC50) under setting [1] is 4.61 µM [falling, full curve].

As for `CCCCN(CC)CCCNC(=O)c1cn(C)c(=O)c2c1c1ccccc1n2C`, the concentration at half-maximal activity (AC50) under setting [1] is 11.2 µM [rising, partial curve, poor fit]. On the same count and under the same terms, the result for `CC(C)(C)OC(=O)NC(CCCCNC=O)C(=O)O` (configuration not stated) reads 0.461 µM [rising, full curve, poor fit]. In the case of `Cc1nn(C)c(C(=O)NNC(=S)NCc2ccco2)c1Br`, the AC50 under setting [1] was 35.5 µM [falling, single point]. As for `COC(=O)c1cc(Nc2cc(C)c3c(O)cccc3n2)cc(C(=O)OC)c1`, the AC50 under setting [1] is 2.24 µM [falling, partial curve, poor fit].

Regarding `COc1ccc(CCN2C(=O)CC(N3CCN(c4ccccn4)CC3)C2=O)cc1OC` (configuration not stated), the AC50 under setting [1] is 4.61 µM [falling, single point]. Consider `CC(NCC(O)COCCC12CC3CC(CC(C3)C1)C2)c1ccccc1` (configuration not stated), for which the AC50 under setting [1] is 15.8 µM [falling, single point]. On to `COc1ccc(-c2ccc(=O)n(CC(=O)Nc3cc(OC)ccc3OC)n2)cc1`, for which the AC50 under setting [1] is 0.708 µM [rising, full curve, poor fit].

As to `Cc1cccc(-n2ncc3c(NNC(=O)c4ccccc4Cl)ncnc32)c1`, under setting [1], the AC50 is 0.2 µM [falling, full curve, poor fit]. Still for that read-out and setting: the result for `O=c1[nH]c(C2CCCN(S(=O)(=O)c3ccccc3)C2)nc2c1nnn2Cc1ccccc1Br` (configuration not stated) reads 22.4 µM [falling, single point]. `O=C(NNS(=O)(=O)c1ccc(F)cc1F)C1Cc2c(ccc3ccccc23)O1` (configuration not stated): under setting [1], the AC50 is 0.355 µM [falling, full curve, poor fit]. In the case of `CN1/C(=C/C(=O)c2ccc(Cl)cc2)Sc2cc3c(cc21)OCO3`, under setting [1], the AC50 was 0.0259 µM [rising, full curve, poor fit]. With `COc1ccc(NC(=O)Nc2c(C)n(C)n(-c3ccccc3)c2=O)cc1`, under setting [2], the AC50 is 6.51 µM [rising, partial curve, poor fit].

In the case of `CCOC(=O)C(C)n1nc(/C=C/c2ccccc2)ccc1=O` (configuration not stated), the AC50 under setting [1] is 11.2 µM [rising, partial curve, poor fit]. In the case of `CCN(CC)CCNC(=O)c1cc2c(=O)n(C)c3ccccc3c2s1`, the AC50 under setting [1] was 7.94 µM [falling, partial curve].
